# Test results published in US20100233802A1.
# No constants are given. Whether binding was seen depends on the method and setting. Some binding calls cover weakened binding; strength is not graded here.
# Molecular target: SNAP-25 peptide comprising amino acids 134-197 of SEQ ID NO: 5 (human)
# Experiment: SPR, normalized curves
binder,measurement,value
"α-SNAP-25 monoclonal antibody 2C9B10 (antibody, V domains shown) VH: QVKLQESGAELVKPGASVKISCKASGYTFTDHSIHWVKQKPGQGLEWIGYLFPGNGNFEYNEKFKGKATLTADKSSSTAYMHLNSLTSEDSAVYFCKKMDYWGQGTTVTVSS VL: DIQMTQSPASLSASVGETVTITCRTTENIYSYFVWSQQRQGKSPQLRVYNAKSLAEGVPSSFNVSVSGTQFSLKINSLQPEDFGTYHCQHHYGTPYTFGGGTRLEIRR",binding,binds
